Values as published with doi:10.1371/journal.pone.0140310, rounded.

Compounds and concentrations:
fludarabine: Nc1nc(F)nc2c1ncn2[C@@H]1O[C@H](CO)[C@@H](O)[C@@H]1O at 1 µM
vorinostat: O=C(CCCCCCC(=O)Nc1ccccc1)NO at 0.4 µM
AS-252424: O=C1NC(=O)/C(=C/c2ccc(-c3ccc(F)cc3O)o2)S1 at 5 µM
KU-0063794: COc1ccc(-c2ccc3c(N4CCOCC4)nc(N4C[C@@H](C)O[C@@H](C)C4)nc3n2)cc1CO at 0.1 µM

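Human melanoma cell lines in 1,536-well plates were treated with two drugs together for 72 h, then fixed, stained and imaged. The read-out is the fraction of cleaved-PARP-positive nuclei, in % of that fraction in the DMSO control; 200 means twice the control level of this apoptosis marker. Every drug was used at one fixed concentration, the higher of two screened. No replicate spread is given; individual values may be noisy. The marker varies much from line to line, for technical or biological reasons.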 Only some of the drugs and lines screened are listed, without regard to their results. A dash means that no value is listed here.

Cell line	AS-252424 + fludarabine	AS-252424 + KU-0063794	vorinostat + AS-252424	fludarabine + KU-0063794	vorinostat + KU-0063794
MeWo	64.7	47.4	52.7	236	86.4
LOX IMVI	105	92.0	127	88.2	28.7
WM1745	-	126	117	-	102
G-361	126	65.3	176	132	87.1
A2058	217	178	138	95.0	67.6
IST-MEL1	155	64.9	130	53.2	342
COLO 829	64.1	199	242	153	273
MZ2-MEL	135	178	69.4	143	50.2
A101D	72.9	247	237	107	91.6
RPMI-7951	236	44.1	87.4	68.8	122
C32	101	85.5	96.3	94.3	112
IPC-298	170	34.9	116	292	95.7
A375	592	85.6	28.3	299	101
SK-MEL-30	641	132	99.8	747	96.2
UACC-62	95.9	56.1	849	100	261
LB2518-MEL	29.5	163	171	88.9	92.8
WM451Lu	106	112	133	78.7	318
501mel	3940	63.0	108	2940	174
WM3526	3280	133	129	1900	246
SK-MEL-28	6060	103	164	4210	233
RVH-421	96.3	44.2	117	23.7	72.0
UACC-257	2390	37.7	104	3330	53.7
SK-MEL-5	2430	103	178	1240	138
MEL-HO	242	62.4	61.4	96.5	188
COLO 800	101	133	246	51.2	118
COLO 792	145	150	114	148	137
WM1716	379	33.6	182	64.2	59.3
WM3619	109	306	145	162	247
WM115	213	57.9	48.7	43.0	130
SK-MEL-2	3960	73.0	159	1610	180

Once more, the final 4:

Cell line,AS-252424 + fludarabine,AS-252424 + KU-0063794,vorinostat + AS-252424,fludarabine + KU-0063794,vorinostat + KU-0063794
WM1716,379,33.6,182,64.2,59.3
WM3619,109,306,145,162,247
WM115,213,57.9,48.7,43.0,130
SK-MEL-2,3960,73.0,159,1610,180